Experimental data taken from the supplement of paper PMC6411743.
± gives the standard deviation of the averaged measurements. Only a part is listed here, and it is no random draw.

Chains of the proteins cited; added tags and fusions are not shown. Lines headed by an entry give the natural chain unless they say otherwise; changes in a name come on top.
UniProt Q9BRP8: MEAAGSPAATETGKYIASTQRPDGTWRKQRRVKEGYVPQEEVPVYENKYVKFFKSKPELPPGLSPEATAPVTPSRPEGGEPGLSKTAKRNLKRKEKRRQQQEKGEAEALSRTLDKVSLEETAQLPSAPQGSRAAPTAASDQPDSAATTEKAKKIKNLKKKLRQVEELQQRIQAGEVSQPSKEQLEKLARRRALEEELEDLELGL
UniProt Q9BQS8: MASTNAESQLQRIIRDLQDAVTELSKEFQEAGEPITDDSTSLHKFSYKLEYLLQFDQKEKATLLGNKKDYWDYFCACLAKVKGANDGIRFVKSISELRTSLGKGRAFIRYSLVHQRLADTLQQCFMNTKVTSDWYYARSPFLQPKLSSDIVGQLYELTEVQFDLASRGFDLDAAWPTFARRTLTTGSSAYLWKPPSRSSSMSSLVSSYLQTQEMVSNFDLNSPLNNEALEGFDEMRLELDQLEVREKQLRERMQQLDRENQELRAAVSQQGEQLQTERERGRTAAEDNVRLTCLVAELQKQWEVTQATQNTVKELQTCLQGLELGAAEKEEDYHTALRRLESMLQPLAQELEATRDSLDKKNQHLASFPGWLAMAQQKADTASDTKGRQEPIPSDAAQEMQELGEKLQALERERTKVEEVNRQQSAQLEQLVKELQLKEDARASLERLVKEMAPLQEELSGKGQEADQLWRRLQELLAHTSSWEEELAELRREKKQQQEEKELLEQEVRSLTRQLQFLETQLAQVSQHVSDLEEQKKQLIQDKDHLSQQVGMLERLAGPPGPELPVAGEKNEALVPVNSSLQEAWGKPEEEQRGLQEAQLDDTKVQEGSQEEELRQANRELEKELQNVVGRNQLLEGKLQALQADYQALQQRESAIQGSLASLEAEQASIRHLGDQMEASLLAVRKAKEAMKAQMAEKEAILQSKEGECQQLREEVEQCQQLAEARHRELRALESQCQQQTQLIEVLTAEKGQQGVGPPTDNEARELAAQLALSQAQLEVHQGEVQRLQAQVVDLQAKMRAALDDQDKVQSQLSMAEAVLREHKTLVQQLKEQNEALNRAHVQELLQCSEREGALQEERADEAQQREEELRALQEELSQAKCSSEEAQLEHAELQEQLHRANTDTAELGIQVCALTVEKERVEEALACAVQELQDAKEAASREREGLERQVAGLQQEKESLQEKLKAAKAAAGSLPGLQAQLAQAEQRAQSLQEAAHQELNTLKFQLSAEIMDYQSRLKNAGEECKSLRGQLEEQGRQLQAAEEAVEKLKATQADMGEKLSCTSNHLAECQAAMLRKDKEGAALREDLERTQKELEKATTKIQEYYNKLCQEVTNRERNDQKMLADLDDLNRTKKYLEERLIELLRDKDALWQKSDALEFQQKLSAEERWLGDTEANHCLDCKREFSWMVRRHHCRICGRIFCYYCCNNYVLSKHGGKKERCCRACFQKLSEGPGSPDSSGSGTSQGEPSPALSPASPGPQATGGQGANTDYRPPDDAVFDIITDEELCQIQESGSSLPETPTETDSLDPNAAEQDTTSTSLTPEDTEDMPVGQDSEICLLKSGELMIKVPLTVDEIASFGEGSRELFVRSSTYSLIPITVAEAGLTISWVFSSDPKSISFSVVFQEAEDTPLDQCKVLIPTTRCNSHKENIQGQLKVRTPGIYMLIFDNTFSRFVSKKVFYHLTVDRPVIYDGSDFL
UniProt Q9BYG3: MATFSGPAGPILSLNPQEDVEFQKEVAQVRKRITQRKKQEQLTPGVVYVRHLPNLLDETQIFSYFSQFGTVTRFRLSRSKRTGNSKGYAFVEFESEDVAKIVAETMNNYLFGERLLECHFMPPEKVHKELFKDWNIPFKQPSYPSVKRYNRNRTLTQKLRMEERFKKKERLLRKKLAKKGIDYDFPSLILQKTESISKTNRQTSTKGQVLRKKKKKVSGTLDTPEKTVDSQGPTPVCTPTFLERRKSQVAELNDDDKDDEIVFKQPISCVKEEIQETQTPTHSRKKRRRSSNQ
UniProt Q9BQG0: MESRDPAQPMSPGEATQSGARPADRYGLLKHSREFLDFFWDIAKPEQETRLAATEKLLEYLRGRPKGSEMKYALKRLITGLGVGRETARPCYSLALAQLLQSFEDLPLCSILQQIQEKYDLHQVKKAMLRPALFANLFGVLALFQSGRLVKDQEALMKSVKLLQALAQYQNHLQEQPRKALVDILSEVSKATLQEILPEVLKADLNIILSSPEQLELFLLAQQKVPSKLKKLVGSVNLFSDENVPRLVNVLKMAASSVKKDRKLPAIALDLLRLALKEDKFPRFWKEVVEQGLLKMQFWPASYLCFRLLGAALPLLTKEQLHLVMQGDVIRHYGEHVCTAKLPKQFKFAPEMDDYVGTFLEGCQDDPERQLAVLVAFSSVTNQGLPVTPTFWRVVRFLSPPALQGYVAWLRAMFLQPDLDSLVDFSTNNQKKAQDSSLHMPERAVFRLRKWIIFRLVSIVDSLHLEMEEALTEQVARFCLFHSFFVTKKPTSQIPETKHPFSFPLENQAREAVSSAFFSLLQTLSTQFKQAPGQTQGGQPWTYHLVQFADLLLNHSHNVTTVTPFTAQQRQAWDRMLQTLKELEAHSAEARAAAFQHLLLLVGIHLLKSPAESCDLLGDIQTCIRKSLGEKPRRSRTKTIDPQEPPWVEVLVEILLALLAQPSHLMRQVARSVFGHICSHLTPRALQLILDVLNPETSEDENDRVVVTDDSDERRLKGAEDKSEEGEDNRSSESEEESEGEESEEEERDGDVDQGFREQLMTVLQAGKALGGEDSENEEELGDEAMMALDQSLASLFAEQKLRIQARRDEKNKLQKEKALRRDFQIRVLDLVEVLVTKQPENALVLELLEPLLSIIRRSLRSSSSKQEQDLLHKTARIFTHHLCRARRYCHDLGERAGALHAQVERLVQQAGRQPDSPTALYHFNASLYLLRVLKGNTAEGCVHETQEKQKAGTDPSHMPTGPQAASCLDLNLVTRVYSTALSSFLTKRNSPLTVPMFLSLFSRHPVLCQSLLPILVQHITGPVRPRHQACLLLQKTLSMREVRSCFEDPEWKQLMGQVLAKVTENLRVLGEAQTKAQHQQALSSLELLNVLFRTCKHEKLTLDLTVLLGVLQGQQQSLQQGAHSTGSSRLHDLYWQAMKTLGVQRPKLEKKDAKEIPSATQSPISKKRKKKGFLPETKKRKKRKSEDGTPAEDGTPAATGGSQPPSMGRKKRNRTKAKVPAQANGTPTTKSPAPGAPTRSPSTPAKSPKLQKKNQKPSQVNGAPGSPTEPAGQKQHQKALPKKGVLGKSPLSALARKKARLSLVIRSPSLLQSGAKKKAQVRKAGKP
UniProt Q9BPZ3: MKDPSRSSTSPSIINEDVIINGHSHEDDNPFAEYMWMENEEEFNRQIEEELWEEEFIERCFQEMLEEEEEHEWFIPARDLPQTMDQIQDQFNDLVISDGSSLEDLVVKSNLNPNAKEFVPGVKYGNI
UniProt Q9BRR6: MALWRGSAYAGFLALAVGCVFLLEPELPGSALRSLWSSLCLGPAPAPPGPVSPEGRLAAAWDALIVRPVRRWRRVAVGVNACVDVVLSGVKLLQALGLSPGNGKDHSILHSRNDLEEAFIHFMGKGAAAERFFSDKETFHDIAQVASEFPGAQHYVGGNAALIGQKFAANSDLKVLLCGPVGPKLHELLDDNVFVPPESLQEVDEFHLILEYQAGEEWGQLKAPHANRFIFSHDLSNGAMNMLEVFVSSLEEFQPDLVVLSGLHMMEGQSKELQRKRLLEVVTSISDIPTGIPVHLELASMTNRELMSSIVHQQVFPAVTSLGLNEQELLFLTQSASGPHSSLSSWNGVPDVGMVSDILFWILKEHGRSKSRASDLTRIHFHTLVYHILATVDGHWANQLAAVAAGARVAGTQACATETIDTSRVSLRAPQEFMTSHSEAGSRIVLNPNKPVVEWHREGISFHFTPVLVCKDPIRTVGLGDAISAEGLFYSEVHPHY
UniProt Q96RN5: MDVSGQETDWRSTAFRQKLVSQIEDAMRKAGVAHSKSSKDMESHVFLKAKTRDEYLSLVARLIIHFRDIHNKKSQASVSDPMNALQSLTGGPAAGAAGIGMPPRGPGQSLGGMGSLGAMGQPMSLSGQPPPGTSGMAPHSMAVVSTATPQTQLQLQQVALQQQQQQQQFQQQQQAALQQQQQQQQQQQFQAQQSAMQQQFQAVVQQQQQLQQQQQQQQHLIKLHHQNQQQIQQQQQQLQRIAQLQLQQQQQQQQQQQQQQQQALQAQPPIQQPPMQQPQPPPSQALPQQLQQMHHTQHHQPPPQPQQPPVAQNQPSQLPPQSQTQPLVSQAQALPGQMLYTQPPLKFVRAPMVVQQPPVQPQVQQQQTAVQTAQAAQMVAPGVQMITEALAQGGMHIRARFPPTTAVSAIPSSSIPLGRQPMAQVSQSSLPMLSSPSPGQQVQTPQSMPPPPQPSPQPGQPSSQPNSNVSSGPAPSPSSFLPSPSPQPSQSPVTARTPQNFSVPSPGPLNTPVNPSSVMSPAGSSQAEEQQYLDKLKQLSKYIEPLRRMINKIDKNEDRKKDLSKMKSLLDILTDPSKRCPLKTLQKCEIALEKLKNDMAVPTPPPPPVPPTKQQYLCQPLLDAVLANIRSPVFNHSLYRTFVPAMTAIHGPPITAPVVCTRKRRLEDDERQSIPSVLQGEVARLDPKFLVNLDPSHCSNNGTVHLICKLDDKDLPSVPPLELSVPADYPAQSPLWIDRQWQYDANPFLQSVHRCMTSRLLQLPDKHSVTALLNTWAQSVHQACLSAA
UniProt Q9BYN0: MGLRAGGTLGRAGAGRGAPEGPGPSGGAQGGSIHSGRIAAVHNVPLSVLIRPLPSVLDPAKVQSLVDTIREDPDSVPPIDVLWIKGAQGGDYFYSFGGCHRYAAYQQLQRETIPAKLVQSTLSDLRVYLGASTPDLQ
UniProt Q9BT09: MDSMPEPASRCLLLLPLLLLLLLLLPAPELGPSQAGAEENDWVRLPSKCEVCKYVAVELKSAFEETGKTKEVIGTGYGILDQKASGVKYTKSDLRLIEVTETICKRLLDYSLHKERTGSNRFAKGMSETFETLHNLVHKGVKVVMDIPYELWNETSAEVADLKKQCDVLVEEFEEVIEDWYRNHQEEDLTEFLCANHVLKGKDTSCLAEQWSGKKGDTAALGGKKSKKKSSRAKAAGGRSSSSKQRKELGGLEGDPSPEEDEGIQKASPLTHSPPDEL
UniProt Q9BWJ5: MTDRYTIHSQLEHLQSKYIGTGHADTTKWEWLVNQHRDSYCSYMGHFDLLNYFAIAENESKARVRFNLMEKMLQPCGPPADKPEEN
UniProt Q9BQP7: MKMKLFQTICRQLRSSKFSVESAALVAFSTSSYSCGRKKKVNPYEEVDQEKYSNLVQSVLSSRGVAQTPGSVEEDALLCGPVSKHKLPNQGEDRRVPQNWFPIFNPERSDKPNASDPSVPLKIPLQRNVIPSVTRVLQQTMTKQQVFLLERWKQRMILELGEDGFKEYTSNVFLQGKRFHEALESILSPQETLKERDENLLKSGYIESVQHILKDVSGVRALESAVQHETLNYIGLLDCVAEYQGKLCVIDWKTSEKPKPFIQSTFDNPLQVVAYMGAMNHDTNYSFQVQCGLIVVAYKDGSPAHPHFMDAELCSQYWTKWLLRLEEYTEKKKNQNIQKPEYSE
UniProt Q96S55: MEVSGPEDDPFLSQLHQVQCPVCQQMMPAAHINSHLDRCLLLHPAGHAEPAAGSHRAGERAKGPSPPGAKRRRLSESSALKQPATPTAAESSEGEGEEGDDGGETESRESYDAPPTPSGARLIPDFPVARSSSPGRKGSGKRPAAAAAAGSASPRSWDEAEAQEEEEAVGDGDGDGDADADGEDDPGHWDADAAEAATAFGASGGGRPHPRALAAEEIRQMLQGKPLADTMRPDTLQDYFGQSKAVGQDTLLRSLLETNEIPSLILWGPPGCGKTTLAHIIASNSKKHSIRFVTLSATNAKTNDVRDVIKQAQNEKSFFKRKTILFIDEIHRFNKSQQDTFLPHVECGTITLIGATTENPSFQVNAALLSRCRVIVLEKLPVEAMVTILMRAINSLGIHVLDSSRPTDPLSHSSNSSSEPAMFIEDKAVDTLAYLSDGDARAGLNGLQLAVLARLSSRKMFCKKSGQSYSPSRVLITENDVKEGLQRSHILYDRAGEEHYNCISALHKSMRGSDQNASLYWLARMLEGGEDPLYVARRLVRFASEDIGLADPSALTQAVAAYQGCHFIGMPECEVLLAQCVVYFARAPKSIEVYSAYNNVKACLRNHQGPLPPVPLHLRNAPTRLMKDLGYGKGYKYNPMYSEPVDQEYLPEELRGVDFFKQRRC
UniProt Q9BRK5: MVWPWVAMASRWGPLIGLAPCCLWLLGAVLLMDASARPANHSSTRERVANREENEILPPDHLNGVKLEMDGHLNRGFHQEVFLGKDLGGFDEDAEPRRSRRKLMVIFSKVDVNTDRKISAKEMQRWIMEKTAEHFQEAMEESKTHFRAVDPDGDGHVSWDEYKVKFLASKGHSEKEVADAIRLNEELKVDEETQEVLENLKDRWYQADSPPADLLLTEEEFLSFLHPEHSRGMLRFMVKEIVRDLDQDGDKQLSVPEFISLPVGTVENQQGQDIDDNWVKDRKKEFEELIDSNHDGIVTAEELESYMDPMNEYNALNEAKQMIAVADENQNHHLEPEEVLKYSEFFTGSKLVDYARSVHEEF

Compound: Nc1ncnc2c1ncn2[C@@H]1O[C@H](COP(=O)(O)OP(=O)(O)NP(=O)(O)O)[C@@H](O)[C@H]1O [adenylyl imidodiphosphate]
Experiment: NP40-soluble protein abundance relative to vehicle (solubility fold change) (ratio); higher = more soluble protein in presence of AMP-PNP
How it was run: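 Data come from three independent experiments in which Dounce-homogenised Jurkat crude lysate was treated at eight concentrations from 0.1 to 10 mM. Treatment ran 10 min at room temperature and then 3 min at 37 °C, after which 0.8% NP40 and benzonase were added for 60 min at 4 °C before ultracentrifugation. The supernatant underwent TMT labelling and LC-MS/MS, and vsn-normalised intensities were expressed as fold change against the detergent-processed vehicle in each replicate.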

Target | NP40-soluble protein abundance (concentration: 1mM) | NP40-soluble protein abundance (concentration: 2mM) | NP40-soluble protein abundance (concentration: 4mM) | NP40-soluble protein abundance (concentration: 6mM) | NP40-soluble protein abundance (concentration: 8mM) | NP40-soluble protein abundance (concentration: 10mM)
SH3GL2 (UniProt Q99962) | 1.04 ± 0.026 | 1.04 ± 0.044 | 1.03 ± 0.057 | 0.992 ± 0.029 | 1.01 ± 0.03 | 0.998 ± 0.03
UniProt Q9BRP8 and related entries | 1.03 ± 0.02 | 1.09 ± 0.066 | 1.02 ± 0.04 | 1.02 ± 0.029 | 0.997 ± 0.0032 | 1.01 ± 0.054
UniProt Q9BQS8 and related entries | 0.99 ± 0.062 | 1.03 ± 0.032 | 1 ± 0.026 | 0.976 ± 0.051 | 0.963 ± 0.038 | 0.97 ± 0.04
UniProt Q9BYG3 | 1.02 ± 0.024 | 1.07 ± 0.042 | 1.07 ± 0.024 | 1.09 ± 0.016 | 1.09 ± 0.029 | 1.12 ± 0.035
UniProt Q9BQG0 and related entries | 0.996 ± 0.055 | 0.979 ± 0.075 | 1.01 ± 0.057 | 1.04 ± 0.13 | 1.04 ± 0.11 | 1.04 ± 0.075
UniProt Q9BPZ3 and related entries | 0.981 ± 0.02 | 1.01 ± 0.044 | 0.945 ± 0.028 | 0.966 ± 0.051 | 0.929 ± 0.014 | 0.9085 ± 0.0067
UniProt Q9BRR6 and related entries | 1.03 ± 0.068 | 1.01 ± 0.035 | 1.04 ± 0.032 | 0.99 ± 0.054 | 1.01 ± 0.068 | 0.995 ± 0.035
UniProt Q96RN5 and related entries | 1.02 ± 0.035 | 1.09 ± 0.14 | 1.01 ± 0.055 | 0.982 ± 0.022 | 0.995 ± 0.027 | 0.982 ± 0.03
UniProt Q9BTV5 and related entries | 1.0068 ± 0.00083 | 0.997 ± 0.035 | 1.04 ± 0.011 | 1.01 ± 0.033 | 0.986 ± 0.041 | 1.01 ± 0.053
SRXN1 (UniProt Q9BYN0) | 0.994 ± 0.025 | 1.03 ± 0.024 | 0.9992 ± 0.0044 | 0.9857 ± 0.0064 | 0.9851 ± 0.0097 | 0.994 ± 0.016
CNPY3 (UniProt Q9BT09) | 0.983 ± 0.012 | 1.03 ± 0.11 | 0.956 ± 0.029 | 0.971 ± 0.015 | 0.946 ± 0.018 | 0.947 ± 0.048
SF3B5 (UniProt Q9BWJ5) | 0.95 ± 0.028 | 0.976 ± 0.066 | 0.97 ± 0.052 | 0.973 ± 0.01 | 0.984 ± 0.048 | 1.02 ± 0.054
UniProt Q9BQP7 | 1.04 ± 0.025 | 1.1 ± 0.047 | 1.06 ± 0.053 | 1.009 ± 0.0084 | 1 ± 0.028 | 1.02 ± 0.052
UniProt Q96S55 and related entries | 0.995 ± 0.061 | 0.967 ± 0.057 | 0.951 ± 0.082 | 0.942 ± 0.08 | 0.933 ± 0.056 | 0.945 ± 0.077
SDF4 (UniProt Q9BRK5) | 0.998 ± 0.023 | 1.04 ± 0.087 | 0.962 ± 0.033 | 0.945 ± 0.012 | 0.907 ± 0.021 | 0.912 ± 0.077

Quoted from the listing.
UniProt Q9BTV5 and related entries | NP40-soluble protein abundance (concentration: 2mM): 0.997 ± 0.035
UniProt Q96RN5 and related entries | NP40-soluble protein abundance (concentration: 1mM): 1.02 ± 0.035
